Drawing on patent publication US6030942A (The Trustees of the University of Pennsylvania, priority 1998, dated 2000), this text covers step yield, crude mass and cyclisation yield for three substances.

Data set [1] in a line: general procedure: Fmoc solid-phase peptide synthesis; 2-Chlorotrityl resin (1.3 mmol/g, Novabiochem); HBTU.
A short description of data set [2]: general procedure: Fmoc solid-phase peptide synthesis; 2-chlorotrityl resin; HBTU. Particulars: whole synthesis, scale 0.25 mmol.

Strings that start with PEPTIDE1 are HELM notation: dots part the residues, brackets hold end groups and non-standard residues.

In data set [1] (coupling step), PEPTIDE1{F.T.L.D.A.D.F}$$$$V2.0 gave a step yield of 96.7%.
The substance PEPTIDE1{[ac].F.T.L.D.A.D.F}$$$$V2.0 had a crude mass in data set [2] of 0.40 g.
In data set [1] (cyclisation step), PEPTIDE1{[ac].L.D.A.D.F}$$$$V2.0 had a cyclisation yield of 61.5%.
